{"sequences": {"note": "Protein sequences, listed by entry. Tags and fused reporters are not part of them.", "UniProt Q06330": "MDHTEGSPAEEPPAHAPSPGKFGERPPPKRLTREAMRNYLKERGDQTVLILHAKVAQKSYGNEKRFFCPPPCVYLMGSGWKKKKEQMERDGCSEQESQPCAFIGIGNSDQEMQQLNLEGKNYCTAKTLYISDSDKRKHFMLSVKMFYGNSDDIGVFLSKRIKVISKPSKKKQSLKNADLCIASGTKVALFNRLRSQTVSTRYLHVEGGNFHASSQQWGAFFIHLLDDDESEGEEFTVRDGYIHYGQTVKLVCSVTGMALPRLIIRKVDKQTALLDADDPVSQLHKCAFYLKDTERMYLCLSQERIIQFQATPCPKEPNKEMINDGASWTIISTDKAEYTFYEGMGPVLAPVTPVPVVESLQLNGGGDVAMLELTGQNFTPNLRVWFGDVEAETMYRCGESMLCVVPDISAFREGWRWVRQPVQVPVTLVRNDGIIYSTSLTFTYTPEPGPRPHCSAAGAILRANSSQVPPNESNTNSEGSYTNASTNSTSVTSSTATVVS"}, "source": "paper PMC4709166", "binders": {"B1": {"name": "Early B-cell Factor 1 (EBF1) (protein, UniProt Q9UH73 1-591)", "chain": "MFGIQESIQRSGSSMKEEPLGSGMNAVRTWMQGAGVLDANTAAQSGVGLARAHFEKQPPSNLRKSNFFHFVLALYDRQGQPVEIERTAFVGFVEKEKEANSEKTNNGIHYRLQLLYSNGIRTEQDFYVRLIDSMTKQAIVYEGQDKNPEMCRVLLTHEIMCSRCCDKKSCGNRNETPSDPVIIDRFFLKFFLKCNQNCLKNAGNPRDMRRFQVVVSTTVNVDGHVLAVSDNMFVHNNSKHGRRARRLDPSEGTPSYLEHATPCIKAISPSEGWTTGGATVIIIGDNFFDGLQVIFGTMLVWSELITPHAIRVQTPPRHIPGVVEVTLSYKSKQFCKGTPGRFIYTALNEPTIDYGFQRLQKVIPRHPGDPERLPKEVILKRAADLVEALYGMPHNNQEIILKRAADIAEALYSVPRNHNQLPALANTSVHAGMMGVNSFSGQLAVNVSEASQATNQGFTRNSSSVSPHGYVPSTTPQQTNYNSVTTSMNGYGSAAMSNLGGSPTFLNGSAANSPYAIVPSSPTMASSTSLPSNCSSSSGIFSFSPANMVSAVKQKSAFAPVVRPQTSPPPTCTSTNGNSLQAISGMIVPPM"}}, "target": "RBP-jκ (human (endogenous in LCL and Mutu I)) (UniProt Q06330)", "test": "co-IP; MutuI (M) or LCL (L) cell extracts, IP with control IgG, anti-EBF1 or anti-RBP-jκ, Western blot for EBNA2, EBF1 or RBP-jκ; input 2% of starting lysate", "note": "No constants are given. Whether binding was seen depends on the method and setting. Binding seen in cells or lysates may run through a third protein.", "data": [{"binder": "B1", "values": [{"measurement": "binding", "result": "no binding"}]}]}
